No constants are given. Whether binding was seen depends on the method and setting. For part of these data: In cells and extracts the contact can be indirect. Some results given as binding are weak or reduced against the parent protein; the word gives no strength. Where a sequence is shown, tags or fusion partners need not be part of it.
How the values were obtained:
[1] = target: T1, His-SPECC1LΔCHD (UniProt Q69YQ0); assay: far-Western, overlay or dot blot
T1 sequence: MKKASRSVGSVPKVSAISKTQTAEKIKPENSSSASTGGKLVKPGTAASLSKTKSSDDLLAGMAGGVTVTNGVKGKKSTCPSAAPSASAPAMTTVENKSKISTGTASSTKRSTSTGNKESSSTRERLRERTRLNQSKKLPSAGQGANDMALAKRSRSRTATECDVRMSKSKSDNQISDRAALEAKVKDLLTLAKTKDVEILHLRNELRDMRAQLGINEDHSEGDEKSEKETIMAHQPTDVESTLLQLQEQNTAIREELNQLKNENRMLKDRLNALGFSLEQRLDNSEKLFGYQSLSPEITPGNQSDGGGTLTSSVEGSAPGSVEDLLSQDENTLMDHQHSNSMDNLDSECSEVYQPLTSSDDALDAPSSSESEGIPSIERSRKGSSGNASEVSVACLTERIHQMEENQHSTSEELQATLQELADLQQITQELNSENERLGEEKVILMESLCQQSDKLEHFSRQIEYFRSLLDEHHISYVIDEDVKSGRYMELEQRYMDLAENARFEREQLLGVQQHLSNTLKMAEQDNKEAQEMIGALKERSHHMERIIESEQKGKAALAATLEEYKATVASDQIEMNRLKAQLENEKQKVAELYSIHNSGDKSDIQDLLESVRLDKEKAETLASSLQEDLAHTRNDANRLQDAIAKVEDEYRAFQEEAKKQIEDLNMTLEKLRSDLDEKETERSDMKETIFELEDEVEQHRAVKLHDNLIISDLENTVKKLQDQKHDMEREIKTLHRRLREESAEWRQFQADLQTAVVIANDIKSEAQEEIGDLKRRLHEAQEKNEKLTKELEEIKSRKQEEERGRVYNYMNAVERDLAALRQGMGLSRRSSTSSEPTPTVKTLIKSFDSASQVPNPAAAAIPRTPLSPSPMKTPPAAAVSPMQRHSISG

The chains behind the UniProt entries cited, without tags or fusion partners. Residues count along the entry.
UniProt O14974, residues 654-1030: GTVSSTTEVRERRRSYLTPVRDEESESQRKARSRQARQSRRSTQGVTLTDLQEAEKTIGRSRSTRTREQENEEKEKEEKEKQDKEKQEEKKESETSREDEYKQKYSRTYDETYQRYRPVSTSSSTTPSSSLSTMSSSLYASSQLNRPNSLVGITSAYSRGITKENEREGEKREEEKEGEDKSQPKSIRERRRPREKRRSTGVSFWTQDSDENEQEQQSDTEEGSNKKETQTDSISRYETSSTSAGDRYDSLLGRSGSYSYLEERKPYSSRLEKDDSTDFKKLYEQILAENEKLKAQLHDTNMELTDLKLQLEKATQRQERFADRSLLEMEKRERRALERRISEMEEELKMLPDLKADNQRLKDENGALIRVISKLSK

[2] = target: GFP-MYPT1(CD) (human) (UniProt O14974); assay: co-IP
[3] = target: GST-MYPT1(CD) (human) (UniProt O14974); assay: pull-down

Question: “GST-MYPT1(CD) (from UniProt O14974 654-1030) (domain or fragment)” was tested. Which binding [1] did it give?
Answer: Its binding is “binds”.

B1: mCherry-tagged SPECC1L-CT (domain or fragment, UniProt Q69YQ0 462-1117)
chain: QIEYFRSLLDEHHISYVIDEDVKSGRYMELEQRYMDLAENARFEREQLLGVQQHLSNTLKMAEQDNKEAQEMIGALKERSHHMERIIESEQKGKAALAATLEEYKATVASDQIEMNRLKAQLENEKQKVAELYSIHNSGDKSDIQDLLESVRLDKEKAETLASSLQEDLAHTRNDANRLQDAIAKVEDEYRAFQEEAKKQIEDLNMTLEKLRSDLDEKETERSDMKETIFELEDEVEQHRAVKLHDNLIISDLENTVKKLQDQKHDMEREIKTLHRRLREESAEWRQFQADLQTAVVIANDIKSEAQEEIGDLKRRLHEAQEKNEKLTKELEEIKSRKQEEERGRVYNYMNAVERDLAALRQGMGLSRRSSTSSEPTPTVKTLIKSFDSASQVPNPAAAAIPRTPLSPSPMKTPPAAAVSPMQRHSISGPISTSKPLTALSDKRPNYGEIPVQEHLLRTSSASRPASLPRVPAMESAKTLSVSRRSSEEVKRDISAQEGASPASLMAMGTTSPQLSLSSSPTASVTPTTRSRIREERKDPLSALAREYGGSKRNALLKWCQKKTEGYQNIDITNFSSSWNDGLAFCALLHTYLPAHIPYQELNSQDKRRNFMLAFQAAESVGIKSTLDINEMVRTERPDWQNVMLYVTAIYKYFET
Question: Which binding [2] does the source give for B1 here?
Answer: The binding was “binds”.

B2: His-SPECC1LΔCHD (domain or fragment, UniProt Q69YQ0 1-890)
chain: MKKASRSVGSVPKVSAISKTQTAEKIKPENSSSASTGGKLVKPGTAASLSKTKSSDDLLAGMAGGVTVTNGVKGKKSTCPSAAPSASAPAMTTVENKSKISTGTASSTKRSTSTGNKESSSTRERLRERTRLNQSKKLPSAGQGANDMALAKRSRSRTATECDVRMSKSKSDNQISDRAALEAKVKDLLTLAKTKDVEILHLRNELRDMRAQLGINEDHSEGDEKSEKETIMAHQPTDVESTLLQLQEQNTAIREELNQLKNENRMLKDRLNALGFSLEQRLDNSEKLFGYQSLSPEITPGNQSDGGGTLTSSVEGSAPGSVEDLLSQDENTLMDHQHSNSMDNLDSECSEVYQPLTSSDDALDAPSSSESEGIPSIERSRKGSSGNASEVSVACLTERIHQMEENQHSTSEELQATLQELADLQQITQELNSENERLGEEKVILMESLCQQSDKLEHFSRQIEYFRSLLDEHHISYVIDEDVKSGRYMELEQRYMDLAENARFEREQLLGVQQHLSNTLKMAEQDNKEAQEMIGALKERSHHMERIIESEQKGKAALAATLEEYKATVASDQIEMNRLKAQLENEKQKVAELYSIHNSGDKSDIQDLLESVRLDKEKAETLASSLQEDLAHTRNDANRLQDAIAKVEDEYRAFQEEAKKQIEDLNMTLEKLRSDLDEKETERSDMKETIFELEDEVEQHRAVKLHDNLIISDLENTVKKLQDQKHDMEREIKTLHRRLREESAEWRQFQADLQTAVVIANDIKSEAQEEIGDLKRRLHEAQEKNEKLTKELEEIKSRKQEEERGRVYNYMNAVERDLAALRQGMGLSRRSSTSSEPTPTVKTLIKSFDSASQVPNPAAAAIPRTPLSPSPMKTPPAAAVSPMQRHSISG
Question: B2 was tested. Which binding [3] did it give?
Answer: The binding was “binds”.

From doi:10.1101/2022.09.09.507377
